From PubChem BioAssay record AID1159506 (NCATS, 2015).

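Genome-wide siRNA knockdown in TC32 Ewing sarcoma cells, comparing luciferase light from an NR0B1-promoter reporter with a CMV-promoter reporter 48 hours after transfection.
Each siRNA was applied at 20 nM.
A z-score of the log NR0B1-over-CMV signal, less the median of siRNAs with the same seed; more negative means a stronger specific loss of the NR0B1 reporter.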

The strongest results of the screen are mostly left out here.
Sequences are the guide (antisense) strand, without overhang.

{"sequence": "ACUCUUUCCACUGUCCUCC", "target gene": "GGT6", "seed-corrected z-score": "0.9031"}
{"sequence": "UUGAUUACGUCGUCCUUUC", "target gene": "ZMYND11", "seed-corrected z-score": "0.8132"}
{"sequence": "UUUGGUUCUGAUUGGACGC", "target gene": "SNAI3", "seed-corrected z-score": "-0.3917"}
{"sequence": "UUUGUUGUCACCUCAGCGG", "target gene": "XRCC5", "seed-corrected z-score": "-1.02"}
{"sequence": "UGGAUAAUAAUGUUCCAGC", "target gene": "ANKMY2", "seed-corrected z-score": "-0.667"}
{"sequence": "UCUGGAAAUACAACCAACC", "target gene": "ELOVL5", "seed-corrected z-score": "-0.3257"}
{"sequence": "UCACCUAUUAAGUUAACUG", "target gene": "ADAM30", "seed-corrected z-score": "-0.3804"}
{"sequence": "AUGGAGUUUAGCAAGGUCC", "target gene": "VTI1B", "seed-corrected z-score": "0.8784"}
{"sequence": "UUUGCUGCAUAGAUGUUUG", "target gene": "MS4A8", "seed-corrected z-score": "0.1419"}
{"sequence": "UUUCUUUGGAGGUUUACUC", "target gene": "PDE6H", "seed-corrected z-score": "-1.424"}
{"sequence": "UAGGAAAAGGCAAUUAUGC", "target gene": "ADRA2A", "seed-corrected z-score": "0.1762"}
{"sequence": "UCUCCUCCUAUAACAGUGU", "target gene": "HDAC4", "seed-corrected z-score": "1.308"}
{"sequence": "UUUCAUCCCUUCUAAAUGU", "target gene": "TRIM64C", "seed-corrected z-score": "0.8232"}
{"sequence": "UCCGGAUCUAGCAUCAAGG", "target gene": "TBC1D2B", "seed-corrected z-score": "0.1882"}
{"sequence": "UUUGGUGUCCUGGAUCUUG", "target gene": "MAP4K1", "seed-corrected z-score": "0.3593"}
{"sequence": "UUCUCCAUAAUGGACGUAC", "target gene": "GPR82", "seed-corrected z-score": "0.8339"}
{"sequence": "AGCUUAUUGAUAAUGGUUC", "target gene": "TRAIP", "seed-corrected z-score": "-0.1584"}
{"sequence": "AUAAAUGUAACCGUGAUAC", "target gene": "SH2D1A", "seed-corrected z-score": "1.323"}
{"sequence": "UCUUUGUCUACGUCCUGCC", "target gene": "KDM8", "seed-corrected z-score": "-1.215"}
{"sequence": "ACCCUUAUCACUGGAAGCG", "target gene": "WDR45", "seed-corrected z-score": "0.5125"}
{"sequence": "UCCUGUACCAAUCCAGCCC", "target gene": "HS3ST2", "seed-corrected z-score": "0.4002"}
{"sequence": "AUCCGGUCCAUCAUGAUGG", "target gene": "FLCN", "seed-corrected z-score": "-0.835"}
{"sequence": "AAACUGCUCAUAGAGGUCA", "target gene": "ACTRT1", "seed-corrected z-score": "-1.473"}
{"sequence": "UGAAGUUCAAUGCUGUAUG", "target gene": "MANBA", "seed-corrected z-score": "-0.1178"}
{"sequence": "UGCAGGUUAACUACCUUGU", "target gene": "YPEL5", "seed-corrected z-score": "-0.4887"}
{"sequence": "UGGGUUGUGAUGACUCGGG", "target gene": "MAP6D1", "seed-corrected z-score": "0.231"}
{"sequence": "UGUAAUGACACCAUAAUGG", "target gene": "RORA", "seed-corrected z-score": "0.03233"}
{"sequence": "UGCGUGUAGAUGUUGCCCA", "target gene": "PAQR4", "seed-corrected z-score": "-0.5568"}
{"sequence": "UAAUCGCUUUGUCAAAGUC", "target gene": "SPTAN1", "seed-corrected z-score": "-0.07406"}
{"sequence": "UUUCUUACGAUCAAUCUGG", "target gene": "ARFGAP2", "seed-corrected z-score": "0.438"}
{"sequence": "UUCGAAUAGAGAGUGUUUC", "target gene": "LOC100287225", "seed-corrected z-score": "0.3339"}
{"sequence": "AGUUUAUUGAGAUGCACCC", "target gene": "HCG9", "seed-corrected z-score": "-0.7807"}
{"sequence": "AUCAUUUCCAUGACGGCCU", "target gene": "PFDN5", "seed-corrected z-score": "0.9104"}

The first 4 entries again:

| Sequence | target gene | seed-corrected z-score |
|---|---|---|
| `ACUCUUUCCACUGUCCUCC` | GGT6 | 0.9031 |
| `UUGAUUACGUCGUCCUUUC` | ZMYND11 | 0.8132 |
| `UUUGGUUCUGAUUGGACGC` | SNAI3 | -0.3917 |
| `UUUGUUGUCACCUCAGCGG` | XRCC5 | -1.02 |